No constants are given. Whether binding was seen depends on the method and setting. In cells and extracts the contact can be indirect. Some binding calls cover weakened binding; strength is not graded here.
Legend:
[1] = molecular target: epidermal growth factor receptor (human (endogenous in HT29, Kato 3, HSC39, MKN7, MKN45, AGS)) (UniProt P00533); assay: co-IP; Kato 3 cell extract, endogenous proteins; same procedure (Triton X-100 lysis, protein G sepharose, high stringency, high salt and low salt washes, Western blot)
[2] = molecular target: epidermal growth factor receptor (human (endogenous in HT29, Kato 3, HSC39, MKN7, MKN45, AGS)) (UniProt P00533); assay: co-IP; AGS cell extract, endogenous proteins; same procedure (Triton X-100 lysis, protein G sepharose, high stringency, high salt and low salt washes, Western blot)
[3] = molecular target: epidermal growth factor receptor (human (endogenous in HT29, Kato 3, HSC39, MKN7, MKN45, AGS)) (UniProt P00533); assay: co-IP; MKN45 cell extract, endogenous proteins; same procedure (Triton X-100 lysis, protein G sepharose, high stringency, high salt and low salt washes, Western blot)
[4] = molecular target: epidermal growth factor receptor (human (endogenous in HT29, Kato 3, HSC39, MKN7, MKN45, AGS)) (UniProt P00533); assay: co-IP; MKN7 cell extract, endogenous proteins; same procedure (Triton X-100 lysis, protein G sepharose, high stringency, high salt and low salt washes, Western blot)
[5] = molecular target: epidermal growth factor receptor (human (endogenous in HT29, Kato 3, HSC39, MKN7, MKN45, AGS)) (UniProt P00533); assay: co-IP; HT29 cell extract (0.5% Triton X-100 buffer: 50 mM NaCl, 10 mM Pipes, MgCl2, 300 mM sucrose), endogenous proteins; precleared with mouse IgG; antibody on protein G sepharose 2 h at 4 C; washed with high stringency, high salt and low salt buffers; SDS-PAGE and Western blot

binding [1]	binding [2]	binding [3]	binding [4]	binding [5]	Molecule
binds	binds	binds	binds	binds	beta-catenin (from UniProt P35222 1-781)
				binds	gamma-catenin (protein, UniProt P14923 1-745) MEVMNLMEQPIKVTEWQQTYTYDSGIHSGANTCVPSVSSKGIMEEDEACGRQYTLKKTTTYTQGVPPSQGDLEYQMSTTARAKRVREAMCPGVSGEDSSLLLATQVEGQATNLQRLAEPSQLLKSAIVHLINYQDDAELATRALPELTKLLNDEDPVVVTKAAMIVNQLSKKEASRRALMGSPQLVAAVVRTMQNTSDLDTARCTTSILHNLSHHREGLLAIFKSGGIPALVRMLSSPVESVLFYAITTLHNLLLYQEGAKMAVRLADGLQKMVPLLNKNNPKFLAITTDCLQLLAYGNQESKLIILANGGPQALVQIMRNYSYEKLLWTTSRVLKVLSVCPSNKPAIVEAGGMQALGKHLTSNSPRLVQNCLWTLRNLSDVATKQEGLESVLKILVNQLSVDDVNVLTCATGTLSNLTCNNSKNKTLVTQNSGVEALIHAILRAGDKDDITEPAVCALRHLTSRHPEAEMAQNSVRLNYGIPAIVKLLNQPNQWPLVKATIGLIRNLALCPANHAPLQEAAVIPRLVQLLVKAHQDAQRHVAAGTQQPYTDGVRMEEIVEGCTGALHILARDPMNRMEIFRLNTIPLFVQLLYSSVENIQRVAAGVLCELAQDKEAADAIDAEGASAPLMELLHSRNEGTATYAAAVLFRISEDKNPDYRKRVSVELTNSLFKHDPAAWEAAQSMIPINEPYGDDMDATYRPMYSSDVPLDPLEMHMDMDGDYPIDTYSDGLRPPYPTADHMLA

Source: publication PMC2362351
